Values of other authors in PMC11915030 (ACS Pharmacology & Translational Science, 2025).

Settings: morphine-metamizole PCA pump, 37 °C, after 7 days; cited from earlier work

In the case of `CN1CC[C@]23c4c5ccc(O)c4O[C@H]2[C@@H](O)C=C[C@H]3[C@H]1C5` [morphine], the “concentration remaining, of initial concentration in the PCA pump” value is listed as “approximately 72%”.
